Measurements: paper PMC4601075, “Specific binding of eukaryotic ORC to DNA replication origins depends on highly conserved basic residues” (Scientific Reports, 2015)
Residue numbers refer to the chain shown, from its start. No constants are given. Whether binding was seen depends on the method and setting. Some entries that bind do so weakly or less than the wild type. For part of these data: Sequences can lack the tags named with a protein.

Tests used:
Test in all cases: co-purification (affinity column, then gel filtration); Orc1-TEV-His co-overexpressed with Orc2/3/4/5/6 in 293T cells; affinity-purified, fractionated on Superdex 200; fractions on 9% SDS-PAGE, Coomassie staining
[1] = target: T1, ScOrc1 K362A (Orc1 subunit of ORC-1^K362A) (S. cerevisiae) (UniProt P54784)
T1 sequence: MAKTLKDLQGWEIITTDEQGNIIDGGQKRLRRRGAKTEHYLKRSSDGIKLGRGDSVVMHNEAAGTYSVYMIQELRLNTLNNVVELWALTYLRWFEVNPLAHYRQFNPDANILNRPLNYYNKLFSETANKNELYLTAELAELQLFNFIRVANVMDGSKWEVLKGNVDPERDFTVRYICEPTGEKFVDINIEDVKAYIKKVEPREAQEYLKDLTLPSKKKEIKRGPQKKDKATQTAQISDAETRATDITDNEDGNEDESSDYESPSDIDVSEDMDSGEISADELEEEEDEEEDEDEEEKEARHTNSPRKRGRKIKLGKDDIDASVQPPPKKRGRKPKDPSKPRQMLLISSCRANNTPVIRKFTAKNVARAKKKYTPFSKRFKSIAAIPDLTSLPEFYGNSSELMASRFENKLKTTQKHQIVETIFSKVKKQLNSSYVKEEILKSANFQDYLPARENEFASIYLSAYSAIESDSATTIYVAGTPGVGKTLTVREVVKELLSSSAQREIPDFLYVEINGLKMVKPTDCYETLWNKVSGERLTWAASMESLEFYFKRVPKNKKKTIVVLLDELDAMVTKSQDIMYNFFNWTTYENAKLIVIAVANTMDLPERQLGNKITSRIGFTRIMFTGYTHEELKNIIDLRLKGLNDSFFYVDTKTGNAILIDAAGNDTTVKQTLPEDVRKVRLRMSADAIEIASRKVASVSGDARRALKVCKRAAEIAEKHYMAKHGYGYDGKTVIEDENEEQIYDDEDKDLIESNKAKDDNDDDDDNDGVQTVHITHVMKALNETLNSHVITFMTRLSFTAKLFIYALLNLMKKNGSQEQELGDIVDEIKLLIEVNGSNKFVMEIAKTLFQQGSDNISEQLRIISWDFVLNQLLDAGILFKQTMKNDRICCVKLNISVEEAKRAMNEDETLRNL

[2] = target: T2, ScOrc1 R367A (Orc1 subunit of ORC-1^R367A) (S. cerevisiae) (UniProt P54784)
T2 sequence: T1 sequence with A362K, R367A

[3] = target: T3, ScOrc1-TEV-His (S. cerevisiae) (UniProt P54784)
T3 sequence: T1 sequence with A362K

Measured: binding

B1: ScOrc4 (protein, UniProt P54791 1-529)
chain: MTISEARLSPQVNLLPIKRHSNEEVEETAAILKKRTIDNEKCKDSDPGFGSLQRRLLQQLYGTLPTDEKIIFTYLQDCQQEIDRIIKQSIIQKESHSVILVGPRQSYKTYLLDYELSLLQQSYKEQFITIRLNGFIHSEQTAINGIATQLEQQLQKIHGSEEKIDDTSLETISSGSLTEVFEKILLLLDSTTKTRNEDSGEVDRESITKITVVFIFDEIDTFAGPVRQTLLYNLFDMVEHSRVPVCIFGCTTKLNILEYLEKRVKSRFSQRVIYMPQIQNLDDMVDAVRNLLTVRSEISPWVSQWNETLEKELSDPRSNLNRHIRMNFETFRSLPTLKNSIIPLVATSKNFGSLCTAIKSCSFLDIYNKNQLSNNLTGRLQSLSDLELAILISAARVALRAKDGSFNFNLAYAEYEKMIKAINSRIPTVAPTTNVGTGQSTFSIDNTIKLWLKKDVKNVWENLVQLDFFTEKSAVGLRDNATAAFYASNYQFQGTMIPFDLRSYQMQIILQELRRIIPKSNMYYSWTQL
binds: [1] | [2] | [3]

B2: ScOrc3 (protein, UniProt P54790 1-616)
chain: MSDLNQSKKMNVSEFADAQRSHYTVYPSLPQSNKNDKHIPFVKLLSGKESEVNVEKRWELYHQLHSHFHDQVDHIIDNIEADLKAEISDLLYSETTQKRRCFNTIFLLGSDSTTKIELKDESSRYNVLIELTPKESPNVRMMLRRSMYKLYSAADAEEHPTIKYEDINDEDGDFTEQNNDVSYDLSLVENFKRLFGKDLAMVFNFKDVDSINFNTLDNFIILLKSAFKYDHVKISLIFNINTNLSNIEKNLRQSTIRLLKRNYHKLDVSSNKGFKYGNQIFQSFLDTVDGKLNLSDRFVEFILSKMANNTNHNLQLLTKMLDYSLMSYFFQNAFSVFIDPVNVDFLNDDYLKILSRCPTFMFFVEGLIKQHAPADEILSLLTNKNRGLEEFFVEFLVRENPINGHAKFVARFLEEELNITNFNLIELYHNLLIGKLDSYLDRWSACKEYKDRLHFEPIDTIFQELFTLDNRSGLLTQSIFPSYKSNIEDNLLSWEQVLPSLDKENYDTLSGDLDKIMAPVLGQLFKLYREANMTINIYDFYIAFRETLPKEEILNFIRKDPSNTKLLELAETPDAFDKVALILFMQAIFAFENMGLIKFQSTKSYDLVEKCVWRGI
binds: [1] | [2] | [3]

B3: ScOrc5 (protein, UniProt P50874 1-479)
chain: MNVTTPEVAFREYQTNCLASYISADPDITPSNLILQGYSGTGKTYTLKKYFNANPNLHAVWLEPVELVSWKPLLQAIARTVQYKLKTLYPNIPTTDYDPLQVEEPFLLVKTLHNIFVQYESLQEKTCLFLILDGFDSLQDLDAALFNKYIKLNELLPKDSKINIKFIYTMLETSFLQRYSTHCIPTVMFPRYNVDEVSTILVMSRCGELMEDSCLRKRIIEEQITDCTDDQFQNVAANFIHLIVQAFHSYTGNDIFALNDLIDFKWPKYVSRITKENIFEPLALYKSAIKLFLSTDDNLSENGQGESAITTNRDDLENSQTYDLSIISKYLLIASYICSYLEPRYDASIFSRKTRIIQGRAAYGRRKKKEVNPRYLQPSLFAIERLLAIFQAIFPIQGKAESGSLSALREESLMKANIEVFQNLSELHTLKLIATTMNKNIDYLSPKVRWKVNVPWEIIKEISESVHFNISDYFSDIHE
binds: [1] | [2] | [3]
